## Melanoma cell counts after drug treatment

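The test systems are human melanoma cell lines, treated with two drugs together for 72 h and then stained and imaged. The read-out is cell count (nuclei) in % of the DMSO control; lower values mean stronger growth inhibition or killing. Concentrations were fixed for each drug; these are the lower of two levels, a fifth of the higher. These are primary screening values without error estimates.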 Only some of the drugs and lines screened are listed, without regard to their results. An entry leaves out what has no value listed here.

Drugs:
NVP-TAE684: COc1cc(N2CCC(N3CCN(C)CC3)CC2)ccc1Nc1ncc(Cl)c(Nc2ccccc2S(=O)(=O)C(C)C)n1 at 0.08 µM
dovitinib: CN1CCN(c2ccc3nc(-c4c(N)c5c(F)cccc5[nH]c4=O)[nH]c3c2)CC1 at 0.1 µM
A-769662: N#Cc1c(O)c2c(-c3ccc(-c4ccccc4O)cc3)csc2[nH]c1=O at 2 µM
pioglitazone: CCc1ccc(CCOc2ccc(CC3SC(=O)NC3=O)cc2)nc1 (centres undefined) at 2 µM
enzastaurin: Cn1cc(C2=C(c3cn(C4CCN(Cc5ccccn5)CC4)c4ccccc34)C(=O)NC2=O)c2ccccc21 at 0.8 µM
ruxolitinib: N#CC[C@H](C1CCCC1)n1cc(-c2ncnc3[nH]ccc23)cn1 at 1 µM
vismodegib: CS(=O)(=O)c1ccc(C(=O)Nc2ccc(Cl)c(-c3ccccn3)c2)c(Cl)c1 at 1 µM
JZL184: O=C(Oc1ccc([N+](=O)[O-])cc1)N1CCC(C(O)(c2ccc3c(c2)OCO3)c2ccc3c(c2)OCO3)CC1 at 1 µM
stibogluconate: O=C(O)[C@@H]1[O][Sb](=[O])([O][Sb]2(=[O])[O][C@H]([C@H](O)CO)[C@H](O)[C@H](C(=O)O)[O]2)[O][C@H]([C@H](O)CO)[C@@H]1O (some centres undefined) at 2 µM
IMD-0354: O=C(Nc1cc(C(F)(F)F)cc(C(F)(F)F)c1)c1cc(Cl)ccc1O at 0.016 µM
GW9662: O=C(Nc1ccccc1)c1cc([N+](=O)[O-])ccc1Cl at 2 µM
XAV939: Oc1nc(-c2ccc(C(F)(F)F)cc2)nc2c1CSCC2 at 2 µM
FK866: O=C(/C=C/c1cccnc1)NCCCCC1CCN(C(=O)c2ccccc2)CC1 at 0.01 µM

Results for vismodegib + pioglitazone are A101D: 93.9; A2058: 86.5; 501mel: 106; C32: 78.3. pioglitazone + ruxolitinib gave A101D: 94.6; A2058: 102; 501mel: 99.8; C32: 87.0. With IMD-0354 + pioglitazone the screen read A101D: 103; A2058: 109; 501mel: 94.0; C32: 111. With ruxolitinib + NVP-TAE684 the screen read A101D: 106; A2058: 68.9; 501mel: 104; C32: 80.2. Results for NVP-TAE684 + vismodegib are A101D: 103; A2058: 91.3; 501mel: 62.2; C32: 96.8.

FK866 + JZL184 gave A101D: 83.0; A2058: 100; 501mel: 64.5; C32: 118. For JZL184 + vismodegib the values were A101D: 101; A2058: 96.4; 501mel: 101; C32: 97.8. For GW9662 + ruxolitinib the values were A101D: 105; A2058: 97.3; 501mel: 76.8; C32: 103. With XAV939 + dovitinib the screen read A101D: 82.6; A2058: 84.7; 501mel: 110; C32: 94.3. Results for enzastaurin + GW9662 are A101D: 98.7; A2058: 105; 501mel: 96.2; C32: 90.1.

With JZL184 + enzastaurin the screen read A101D: 106; A2058: 104; 501mel: 96.8; C32: 94.4. For IMD-0354 + XAV939 the values were A101D: 80.1; A2058: 77.6; 501mel: 104; C32: 112. Results for XAV939 + FK866 are A101D: 85.0; A2058: 85.3; 501mel: 106; C32: 91.9. With stibogluconate + GW9662 the screen read A101D: 0.8; A2058: 92.8; 501mel: 90.1; C32: 95.9. Results for GW9662 + IMD-0354 are A101D: 91.7; A2058: 110; 501mel: 105; C32: 96.7.

Results for A-769662 + ruxolitinib are A2058: 81.2; 501mel: 94.5; C32: 105. For ruxolitinib + JZL184 the values were A101D: 121; A2058: 91.7; 501mel: 89.5; C32: 108. XAV939 + vismodegib gave A101D: 79.3; A2058: 69.9; 501mel: 102; C32: 94.4. With JZL184 + IMD-0354 the screen read A101D: 107; A2058: 111; 501mel: 90.9; C32: 97.7. Results for stibogluconate + XAV939 are A101D: 95.9; A2058: 93.5; 501mel: 103; C32: 89.2.

With vismodegib + GW9662 the screen read A101D: 96.3; A2058: 108; 501mel: 119; C32: 108. dovitinib + pioglitazone gave A101D: 99.7; A2058: 102; 501mel: 89.7; C32: 95.6. enzastaurin + A-769662 gave A101D: 82.6; A2058: 103; 501mel: 82.1; C32: 119. Results for dovitinib + A-769662 are A101D: 104; A2058: 98.6; 501mel: 76.1; C32: 99.5. With NVP-TAE684 + XAV939 the screen read A375: 92.9; A101D: 89.1; A2058: 77.3; 501mel: 104; C32: 98.3.

Results for GW9662 + FK866 are A101D: 94.3; A2058: 115; 501mel: 68.5; C32: 106. Results for enzastaurin + pioglitazone are A101D: 103; A2058: 98.0; 501mel: 118; C32: 107. For dovitinib + GW9662 the values were A101D: 84.7; A2058: 87.5; 501mel: 72.4; C32: 84.1. With pioglitazone + stibogluconate the screen read A101D: 2.0; A2058: 91.4; 501mel: 115; C32: 105.

From a melanoma drug combination screen (doi:10.1371/journal.pone.0140310); values rounded.